The target in the series is FnrD154A (constitutively active Fnr) (Escherichia coli K12 (from plasmid pPK822)) (UniProt P0A9E5). As to the kind of experiment: EMSA. As to conditions: 50 ug BSA, 261 bp non-specific competitor DNA, 37 C, dose-dependent; recombinant protein; residues 1-250; protein details: C-terminal 6xHis (pBAD-TOPO); label: none (GelRed stain); probe letters rebuilt from the primers and the genome.

The exact form of at least one protein or probe is not confirmed.

With “TCTAAGAAAACCTCATCCCGGGATTTTCAGGCAACCCTCCCGGTGATGCCAAAGAGAAAAGTGTAGTTCGTTGACAATAAATTTACATTTCTACAACTTAAAAGGGCCATTTTTGCTAAAGAAGCGAGTCAGCCCGTTTAACCTTTATCCAGGCTTGCCGACAGTAGAATTGAGATGGCTCCGCTACTTCACCCGGTGACGGCTGATTACGTTATGCCTTATCTCCTGATGACGGCTGCCAGATCACAATGCTTTGGTAAACCGGAAATGACTTTGCTTGTAACCTTCGCGAAGATAAAAACGGTGTGCATCGCGGCGTTTAATATTTGTGGAAAGCTCCGTTAGCTCGGCGCCCGCCTGACGTGCTTCTTCTTCTGCCCAGGCCAGAAGCTGACTGCCAATTTTTTGTCCCCGCATCGGCGGTAATACCACCAGCTCCTGAATTTCGCCAATCCAGTTGGCATGATGGAGATGAAACT (double strand) [complete lpxO promoter region, 480 bp]”, the binding result was “binds”.

For the origin of these results see PMC6002686.
